Results on 2 substances are retold here after PMC9779020.

Chains of the proteins cited; added tags and fusions are not shown. Residues count along the entry.
UniProt P05067, residues 672-713: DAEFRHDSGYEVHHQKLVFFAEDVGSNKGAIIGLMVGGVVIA
UniProt P63104: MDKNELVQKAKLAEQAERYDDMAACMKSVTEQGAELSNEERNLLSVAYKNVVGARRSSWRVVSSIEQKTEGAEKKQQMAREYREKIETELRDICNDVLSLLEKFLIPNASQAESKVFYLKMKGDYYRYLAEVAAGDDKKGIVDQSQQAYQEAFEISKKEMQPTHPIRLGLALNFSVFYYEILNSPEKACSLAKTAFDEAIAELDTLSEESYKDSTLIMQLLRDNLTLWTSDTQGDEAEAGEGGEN
UniProt P31947: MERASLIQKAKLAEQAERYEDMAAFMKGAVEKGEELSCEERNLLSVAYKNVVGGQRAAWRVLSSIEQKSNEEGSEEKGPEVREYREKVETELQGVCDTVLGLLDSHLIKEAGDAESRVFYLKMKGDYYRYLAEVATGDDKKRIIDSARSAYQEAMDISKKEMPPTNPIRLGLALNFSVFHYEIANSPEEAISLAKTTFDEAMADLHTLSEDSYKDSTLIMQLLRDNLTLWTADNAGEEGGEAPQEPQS

Results are given in words; binding and its absence hold for the method and conditions named. Binding seen in cells or lysates may run through a third protein. Here binding means that the protein was enriched with, or labelled near, the bait; the list need not be complete.

For this experiment, the target named is amyloid beta Aβ1-42 (human (endogenous in hippocampus)) (UniProt P05067). Nature of the experiment: affinity purification with mass spectrometry; detergent-insoluble aggregates from AD and age-matched control (AMC) hippocampi, immunoprecipitated with antibodies to amyloid beta or tau; spectral hits.

With “14-3-3Z (14-3-3 zeta) (from UniProt P63104 1-245)”, the binding result is “binds”.

In the case of “14-3-3S (14-3-3 sigma) (from UniProt P31947 1-248)”, the binding entry is “binds”.
